“Also recorded” adds a separate entry of the source.
Columns and labels:
αVβ8 headpiece [1] = test: Hydrogen-deuterium exchange MS, αVβ8 headpiece; conditions: 21 °C
Procedure: Two microliters of αVβ6 and αVβ8 stock solutions (23 and 33 µM, respectively), either alone or mixed with 100 µM TGF-β1 ligand peptide, were diluted 15-fold (to 1.53 and 2.20 µM, αVβ6 and αVβ8, respectively, and 6.67 µM TGF-β1 ligand peptide) with labeling buffer (Supplementary Table 1) at 21 °C to initiate deuterium exchange. […] At time points from 10 s to 240 m, an aliquot was removed and an equal volume of quench buffer (Supplementary Table 1) was added to adjust the pH to 2.5. Each sample (46 pmol αVβ6 or 66 pmol αVβ8) was immediately subjected to liquid chromatography-mass spectrometry analysis as described in the next paragraphs and in our PRIDE submission (PXD014348). For binding experiments, protein and ligand were allowed to equilibrate for 20 min at 21 °C before deuterium labeling.
Deuterated and control samples were digested in solution with pepsin (10 mg/ml, Sigma P6887; Lot#SLBL1721V) for 5 min on ice, and then injected into an M-class Acquity UPLC with HDX technology (Waters)[32]. The cooling chamber of the UPLC system, which housed all the chromatographic elements was held at 0.0 ± 0.1 °C for the entire time of the measurements. The injected peptides were trapped and desalted for 3 min at 100 µl/min using a BEH C18 2.1 × 5 mm^2 column (Waters, 186003975) and then separated in 14 min by a 5–40% acetonitrile:water gradient at 40 µl/min. The separation column was a 1.0 × 100.0 mm^2 Acquity UPLC C18 BEH (Waters, 186002346) containing 1.7 µm particles. The back pressure averaged 8800 psi at 0.1 °C[33]. The error of determining the deuterium levels was ±0.15 Da in this experimental setup. To eliminate peptide carryover, a wash solution of 1.5 M GnHCl, 0.8% formic acid, and 4% acetonitrile was injected after each run.
Mass spectra were acquired using a Waters Synapt G2-Si HDMS^E mass spectrometer in ion mobility mode. A conventional electrospray source was used and the instrument was scanned over the range 100 to 1900m/z. The instrument configuration was the following: capillary was 3.2 kV, trap collision energy at 6 V, sampling cone at 35 V, source temperature of 80 °C, and desolvation temperature of 175 °C. All comparison experiments were done under identical experimental conditions such that deuterium levels were not corrected for back-exchange and are therefore reported as relative.
Peptides were identified using PLGS 3.0.1 (Waters, 720001408EN) using six replicates of undeuterated αVβ6 and six replicates of undeuterated αVβ8. […] The relative amount of deuterium in each peptide was determined by subtracting the centroid mass of the undeuterated form of each peptide from the deuteratered form, at each time point, for each condition. […]

αVβ6 headpiece = test: Hydrogen-deuterium exchange MS, αVβ6 headpiece; conditions: 21 °C
αVβ8 headpiece [2] = test: Crystal soaking, ligand-induced residue movement, αVβ8; conditions: 1 mM peptide, 10 mM Mg2+, 2 mM Ca2+
αVβ8-mut3 headpiece = test: Negative stain EM headpiece opening, αVβ8-mut3; conditions: 1 mM Mn2+/0.2 mM Ca2+
[3] = αV β-propeller, C-terminal half of region between Tyr-178 and Asp-218, 10 s to 4 h, triplicate

Substance | effect of ligand binding on deuterium exchange (αVβ8 headpiece [1]; SDL2) | effect of ligand binding on deuterium exchange (αVβ8 headpiece [1]; SDL3) | effect of ligand binding on deuterium exchange (αVβ8 headpiece [1]; α1-helix, 10 s) | effect of ligand binding on deuterium exchange (αVβ8 headpiece [1]; [3]) | effect of ligand binding on deuterium exchange (αVβ6 headpiece; SDL2) | effect of ligand binding on deuterium exchange (αVβ6 headpiece; SDL3) | effect of ligand binding on deuterium exchange (αVβ6 headpiece; α1-helix, early time points) | effect of ligand binding on deuterium exchange (αVβ6 headpiece; [3]) | distance of S5 Cα from its position in fully open αIIbβ3 (αVβ8 headpiece [2]) [Å] | movement of β-MIDAS D/N8 equivalent Asn-119 on ligand soaking (αVβ8 headpiece [2]) [Å] | headpiece conformation when bound to pro-TGF-β1 (αVβ8-mut3 headpiece)
G^213RRGDLATIHG^223 [TGF-β1 ligand peptide] | greatly decreased exchange | slowed exchange | augmented at 10 s | slowed the exchange | greatly decreased exchange | slowed exchange | decreased at early time points | slowed the exchange | ≤ 1.1 | 1.8 | 
pro-TGF-β1: Human pro-TGFβ-1 with a R249A cleavage site mutation |  |  |  |  |  |  |  |  |  |  | remained closed; also recorded: neither mutant showed the open headpiece
